Test results published in article PMC7819943, “Rice protein-binding microarrays: a tool to detect cis-acting elements near promoter regions in rice”.
Some of the results follow.

By UniProt entry, the sequences of proteins in these tests, tags left out.
UniProt Q0JBA9, entry or part of it: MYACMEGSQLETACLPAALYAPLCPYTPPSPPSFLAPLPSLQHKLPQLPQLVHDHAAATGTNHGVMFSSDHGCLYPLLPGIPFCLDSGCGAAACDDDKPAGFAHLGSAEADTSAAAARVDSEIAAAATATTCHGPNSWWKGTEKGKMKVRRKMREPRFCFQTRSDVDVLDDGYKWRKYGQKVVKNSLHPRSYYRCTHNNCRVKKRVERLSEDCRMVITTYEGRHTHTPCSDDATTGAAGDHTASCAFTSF

Biological target: OsWRKY34 (Oryza sativa, UniProt Q0JBA9 1-250)
Assay: protein-binding microarray (RPBM); PBS, 2% BSA, 51.3 ng/ul salmon testes DNA, 50 uM zinc acetate, 200 nM TF, 25 C, 1 h; high values mean tight binding
Conditions: protein: recombinant; tags: N-terminal polyhistidine and DsRed monomer fusion (pET32a); label: CyDye5-dUTP incorporated in the synthesized complementary strand; 3' TTTTT single-stranded linker to array surface; dsDNA, one strand shown
In short: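 Polyhistidine-tagged DsRed fusions of transcription factors, joined at the N-terminus, were expressed in E. coli BL21-CodonPlus and isolated on Ni–NTA. They were incubated at 200 nM for 1 h at 25 °C on a custom Agilent array, double-stranded and BSA-blocked, in PBS with 2% BSA, salmon testes DNA and 50 µM zinc acetate. The binding signal is per-feature fluorescence intensity (arbitrary units) read on an Axon 4000B scanner after washing.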

Going from “GCCCAATCCACCGTAGCCGCGGCCCATTTCGTTGTCCGTCCGGAGTCACCTAGTGCAG” to “ACCGCAGTGCTCGCTCATATTTTTAGTCGCGTTGTTGCTGCGGAGTCACCTAGTGCAG”, the binding signal falls from 9970 fluorescence intensity (a.u.) to 8340 fluorescence intensity (a.u.).

First: TCCTAGCCATCTATTCTTCTCATCTATATCTTCACATCTCCGGAGTCACCTAGTGCAG
Second: GGATATTAGGATTTAACCGATTAATCATGCATTTTATATACGGAGTCACCTAGTGCAG
The binding signal of the first is higher: 9760 fluorescence intensity (a.u.) for the first, 8560 fluorescence intensity (a.u.) for the second.

First: AAGAAACAACACACGTTAGCATTTCACTGCTATTAAGTTCCGGAGTCACCTAGTGCAG
Second: AGCGTAATGCCTATAACTTACTCGTCGCATGAGTTCTATTCGGAGTCACCTAGTGCAG
The binding signal of the first is lower: 8460 fluorescence intensity (a.u.) for the first, 9020 fluorescence intensity (a.u.) for the second.

First: CTTTTGCACTCGAGATATTTCATCAGTTCTTGCCATTTCACGGAGTCACCTAGTGCAG
Second: GGCCGCCGCATTGCCCGCCTACCTACCCTGTGGTTTCCAGCGGAGTCACCTAGTGCAG
The binding signal of the first is higher: 16500 fluorescence intensity (a.u.) for the first, 8120 fluorescence intensity (a.u.) for the second.

Compared with “AAAGTACACCCAAGGTCCCTCAATTTGTCATCGAGATACACGGAGTCACCTAGTGCAG”, “TATGTTTTTCTTCCAACAGTCATGATATAGTTTTGCTTGTCGGAGTCACCTAGTGCAG” is higher in binding signal: 8050 fluorescence intensity (a.u.) for the first, 8560 fluorescence intensity (a.u.) for the second.

Going from “CCGTTGAGTTACTAATATGGTGCTGTGTCTCGGCTCTTGACGGAGTCACCTAGTGCAG” to “CTTGTCCACTCCAGTCCACACAGCCACTCGATCGTTATCCCGGAGTCACCTAGTGCAG”, the binding signal rises from 11100 fluorescence intensity (a.u.) to 11900 fluorescence intensity (a.u.).

Compared with “TATTACTTTTTTTTGTGTGTGTTTCCTTGGCTCCTTGCTCCGGAGTCACCTAGTGCAG”, “GAACCACCTCAATCTTCATGGTCCGGTTGAACGAGATCTACGGAGTCACCTAGTGCAG” is higher in binding signal: 8050 fluorescence intensity (a.u.) for the first, 8940 fluorescence intensity (a.u.) for the second.

First: TCCATCGGTCTTCTCTTCCTAGCTTTCTGATGGAACGAAGCGGAGTCACCTAGTGCAG
Second: GTGGTGGTGCTGCTGCATTGGGTGCGTCGTGGGTGGATTCCGGAGTCACCTAGTGCAG
The binding signal of the first is higher: 11800 fluorescence intensity (a.u.) for the first, 8440 fluorescence intensity (a.u.) for the second.

Going from “CCTGCCTGCCTGCCTGCCTGCTGCGTTTCGATCGATATCCCGGAGTCACCTAGTGCAG” to “CCTTTCGTTCTGTATGTTAGCCATCAATCTTTAATGTTTGCGGAGTCACCTAGTGCAG”, the binding signal rises from 9760 fluorescence intensity (a.u.) to 9850 fluorescence intensity (a.u.).

First: TATTTAACTGTACATGATCTTTGGTTAGGTAAGACAAACACGGAGTCACCTAGTGCAG
Second: GAACTCCCACTCACTAGTAGCACTTACTTGTAGCTATTGACGGAGTCACCTAGTGCAG
The binding signal of the first is higher: 8870 fluorescence intensity (a.u.) for the first, 8630 fluorescence intensity (a.u.) for the second.

First: CACGAAACACCACACGTCATCGCTGCAGTAAACGCCATCACGGAGTCACCTAGTGCAG
Second: TCCCGCTTTCGCGAATCACCGTGGTCTCACGATTTTTGTTCGGAGTCACCTAGTGCAG
The binding signal of the first is lower: 9220 fluorescence intensity (a.u.) for the first, 10200 fluorescence intensity (a.u.) for the second.

Going from “CATAGGTGATCAAATCAATCAGTTGGGTCTGTTGGGTGGGCGGAGTCACCTAGTGCAG” to “CCGGCCCAACACCACTAACACGTTCAGCCCCAATCCCCAACGGAGTCACCTAGTGCAG”, the binding signal falls from 12400 fluorescence intensity (a.u.) to 8200 fluorescence intensity (a.u.).

First: GTCTCTACCTGGGCGCTTCGAAACATGTTAATCCAGCAGACGGAGTCACCTAGTGCAG
Second: GCGGCTGCTCATCAACATCTACGCCATCGGCCGCGACCCGCGGAGTCACCTAGTGCAG
The binding signal of the first is higher: 8530 fluorescence intensity (a.u.) for the first, 8080 fluorescence intensity (a.u.) for the second.

First: CTTTCCTGCACCTCCACTTTATTTAGTTCATTAATTGAATCGGAGTCACCTAGTGCAG
Second: TTCCATTGCTCAACTTATGTTCTGCAAGTTGATACGCATTCGGAGTCACCTAGTGCAG
The binding signal of the first is higher: 8660 fluorescence intensity (a.u.) for the first, 8230 fluorescence intensity (a.u.) for the second.

Compared with “GTTCTGTATGTTGGAAAGCCAATGTATCATATTATTATTTCGGAGTCACCTAGTGCAG”, “AGTTGATTTTGGGGTTTTTTCATCGAAGTTTCTTTTTCAGCGGAGTCACCTAGTGCAG” is higher in binding signal: 8760 fluorescence intensity (a.u.) for the first, 9720 fluorescence intensity (a.u.) for the second.

Going from “CCAAGAATCCAATCTGGAAGTCGTCTGCCTTTAATATTGTCGGAGTCACCTAGTGCAG” to “GCGAAATATCTCACCTCACGTAGCTCTCGCCCCGGAAGACCGGAGTCACCTAGTGCAG”, the binding signal rises from 9110 fluorescence intensity (a.u.) to 9740 fluorescence intensity (a.u.).

First: ATGTAAATTCAATATCTTTCAACTGTTAGTTTTATTGTCACGGAGTCACCTAGTGCAG
Second: CCTGACCCGACTCGCATTATAGCATTTAGCCCGCACCAGTCGGAGTCACCTAGTGCAG
The binding signal of the first is higher: 10900 fluorescence intensity (a.u.) for the first, 8830 fluorescence intensity (a.u.) for the second.

Going from “ACACTCAAACGACACTTCACGCATCTCTCCTGAAATCTTGCGGAGTCACCTAGTGCAG” to “TTACTCCCGAATGATCCTTTTGCTACATTCCCAATCTATCCGGAGTCACCTAGTGCAG”, the binding signal falls from 8780 fluorescence intensity (a.u.) to 8490 fluorescence intensity (a.u.).

First: CTCGTCGTCGTCCTCGTCCTCAGTCTTCACCTTTGCTCCCCGGAGTCACCTAGTGCAG
Second: CCCTACCTGGCGCGCCACTATCGACGTTTGATGTCGCGATCGGAGTCACCTAGTGCAG
The binding signal of the first is lower: 9320 fluorescence intensity (a.u.) for the first, 9340 fluorescence intensity (a.u.) for the second.

First: CTGTTGGTATTTTGGTCATTTTACTTAAAAAAAGTTGATTCGGAGTCACCTAGTGCAG
Second: CTCCGCCTCCGCTGTTCCGTCTCCGACTTCCCCACCACGACGGAGTCACCTAGTGCAG
The binding signal of the first is lower: 8340 fluorescence intensity (a.u.) for the first, 8960 fluorescence intensity (a.u.) for the second.

Compared with “CTTCCCAGAAATCGCCTGACCCACCCGCACCGACAACACACGGAGTCACCTAGTGCAG”, “GTGCAGTTGCCAGGTTGTGAACTTATCATGTTGCTCTCTCCGGAGTCACCTAGTGCAG” is higher in binding signal: 8350 fluorescence intensity (a.u.) for the first, 13700 fluorescence intensity (a.u.) for the second.
